Assay results taken from the supplement of paper PMC10849652.
This is one part of the list.

The chains behind the UniProt entries cited, without tags or fusion partners. Where a name states a change or a piece, a line headed by the entry shows the natural chain unless it says otherwise.
UniProt Q08623: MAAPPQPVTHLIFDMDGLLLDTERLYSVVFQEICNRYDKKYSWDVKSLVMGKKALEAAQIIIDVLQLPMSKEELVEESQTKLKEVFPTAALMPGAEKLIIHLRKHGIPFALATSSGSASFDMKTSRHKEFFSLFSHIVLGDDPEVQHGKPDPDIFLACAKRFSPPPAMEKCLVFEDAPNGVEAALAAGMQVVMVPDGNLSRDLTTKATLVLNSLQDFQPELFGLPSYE
UniProt P28066: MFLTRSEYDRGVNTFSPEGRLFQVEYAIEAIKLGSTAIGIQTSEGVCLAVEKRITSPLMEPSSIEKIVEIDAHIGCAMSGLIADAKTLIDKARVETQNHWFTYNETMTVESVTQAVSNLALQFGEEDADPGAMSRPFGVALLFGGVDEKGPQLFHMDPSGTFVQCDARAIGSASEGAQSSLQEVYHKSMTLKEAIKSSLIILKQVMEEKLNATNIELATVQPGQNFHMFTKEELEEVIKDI
UniProt Q6PGN9: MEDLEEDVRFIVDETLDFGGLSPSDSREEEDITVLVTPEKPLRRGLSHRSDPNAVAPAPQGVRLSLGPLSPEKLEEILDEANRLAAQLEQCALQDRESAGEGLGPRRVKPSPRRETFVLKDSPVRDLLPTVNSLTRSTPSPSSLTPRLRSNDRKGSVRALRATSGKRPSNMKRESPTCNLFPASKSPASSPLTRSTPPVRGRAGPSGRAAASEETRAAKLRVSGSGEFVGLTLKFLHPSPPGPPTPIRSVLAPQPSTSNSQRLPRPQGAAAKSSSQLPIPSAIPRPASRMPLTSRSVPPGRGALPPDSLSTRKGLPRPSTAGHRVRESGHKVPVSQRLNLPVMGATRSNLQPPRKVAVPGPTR
UniProt Q969U7: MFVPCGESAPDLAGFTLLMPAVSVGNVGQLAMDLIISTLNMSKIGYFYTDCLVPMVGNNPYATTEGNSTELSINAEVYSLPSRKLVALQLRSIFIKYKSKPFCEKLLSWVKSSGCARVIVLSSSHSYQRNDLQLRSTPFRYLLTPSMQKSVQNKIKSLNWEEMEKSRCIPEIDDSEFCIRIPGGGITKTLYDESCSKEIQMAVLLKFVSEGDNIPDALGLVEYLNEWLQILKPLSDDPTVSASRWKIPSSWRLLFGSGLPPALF
UniProt Q96PU8: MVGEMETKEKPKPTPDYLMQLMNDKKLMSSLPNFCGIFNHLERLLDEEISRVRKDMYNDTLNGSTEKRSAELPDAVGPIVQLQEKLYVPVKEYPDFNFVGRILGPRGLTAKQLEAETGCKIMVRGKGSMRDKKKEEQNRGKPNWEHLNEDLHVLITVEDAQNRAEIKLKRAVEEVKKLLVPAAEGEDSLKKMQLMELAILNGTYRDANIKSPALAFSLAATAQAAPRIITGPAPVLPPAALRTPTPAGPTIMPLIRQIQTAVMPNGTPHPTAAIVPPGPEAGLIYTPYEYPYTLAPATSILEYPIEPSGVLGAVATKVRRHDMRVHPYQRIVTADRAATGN
UniProt Q92530: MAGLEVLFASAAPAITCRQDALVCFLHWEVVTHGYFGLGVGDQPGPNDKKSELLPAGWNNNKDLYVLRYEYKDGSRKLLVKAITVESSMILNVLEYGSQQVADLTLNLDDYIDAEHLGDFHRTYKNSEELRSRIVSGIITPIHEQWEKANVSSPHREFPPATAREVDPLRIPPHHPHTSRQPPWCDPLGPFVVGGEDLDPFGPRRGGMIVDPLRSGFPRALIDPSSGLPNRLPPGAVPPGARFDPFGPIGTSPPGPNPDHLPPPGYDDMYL
UniProt Q93096: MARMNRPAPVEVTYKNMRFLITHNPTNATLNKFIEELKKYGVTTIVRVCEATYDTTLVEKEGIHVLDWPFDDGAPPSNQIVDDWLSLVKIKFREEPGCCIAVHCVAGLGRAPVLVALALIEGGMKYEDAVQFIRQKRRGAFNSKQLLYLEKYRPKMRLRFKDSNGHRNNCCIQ
UniProt Q13308: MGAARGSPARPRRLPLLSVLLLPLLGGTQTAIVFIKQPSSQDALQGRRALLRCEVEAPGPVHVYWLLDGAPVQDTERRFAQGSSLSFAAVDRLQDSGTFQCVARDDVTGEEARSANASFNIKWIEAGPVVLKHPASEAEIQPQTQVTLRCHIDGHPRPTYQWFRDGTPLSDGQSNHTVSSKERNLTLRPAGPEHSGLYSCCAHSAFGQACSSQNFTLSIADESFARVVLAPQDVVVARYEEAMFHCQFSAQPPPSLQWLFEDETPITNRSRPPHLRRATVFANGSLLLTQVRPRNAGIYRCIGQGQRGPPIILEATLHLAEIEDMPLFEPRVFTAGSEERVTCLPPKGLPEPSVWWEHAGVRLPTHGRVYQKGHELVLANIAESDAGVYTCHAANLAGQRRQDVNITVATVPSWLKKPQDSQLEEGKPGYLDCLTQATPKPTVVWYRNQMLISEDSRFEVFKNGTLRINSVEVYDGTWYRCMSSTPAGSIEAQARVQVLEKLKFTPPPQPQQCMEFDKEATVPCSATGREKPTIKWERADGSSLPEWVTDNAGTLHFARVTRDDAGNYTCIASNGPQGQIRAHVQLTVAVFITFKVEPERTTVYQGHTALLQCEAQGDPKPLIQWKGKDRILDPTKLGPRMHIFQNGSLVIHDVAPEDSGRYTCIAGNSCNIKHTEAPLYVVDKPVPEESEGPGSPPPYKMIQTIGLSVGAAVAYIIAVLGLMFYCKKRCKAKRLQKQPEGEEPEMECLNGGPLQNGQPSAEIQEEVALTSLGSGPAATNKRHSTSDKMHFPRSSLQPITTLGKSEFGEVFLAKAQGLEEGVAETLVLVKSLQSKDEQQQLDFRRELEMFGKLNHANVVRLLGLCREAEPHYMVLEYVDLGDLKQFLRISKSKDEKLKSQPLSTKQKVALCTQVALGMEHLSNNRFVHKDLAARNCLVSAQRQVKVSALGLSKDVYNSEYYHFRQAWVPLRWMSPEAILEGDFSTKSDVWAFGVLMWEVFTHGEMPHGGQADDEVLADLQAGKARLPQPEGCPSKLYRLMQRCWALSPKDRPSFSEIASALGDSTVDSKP
UniProt Q6ZRP7: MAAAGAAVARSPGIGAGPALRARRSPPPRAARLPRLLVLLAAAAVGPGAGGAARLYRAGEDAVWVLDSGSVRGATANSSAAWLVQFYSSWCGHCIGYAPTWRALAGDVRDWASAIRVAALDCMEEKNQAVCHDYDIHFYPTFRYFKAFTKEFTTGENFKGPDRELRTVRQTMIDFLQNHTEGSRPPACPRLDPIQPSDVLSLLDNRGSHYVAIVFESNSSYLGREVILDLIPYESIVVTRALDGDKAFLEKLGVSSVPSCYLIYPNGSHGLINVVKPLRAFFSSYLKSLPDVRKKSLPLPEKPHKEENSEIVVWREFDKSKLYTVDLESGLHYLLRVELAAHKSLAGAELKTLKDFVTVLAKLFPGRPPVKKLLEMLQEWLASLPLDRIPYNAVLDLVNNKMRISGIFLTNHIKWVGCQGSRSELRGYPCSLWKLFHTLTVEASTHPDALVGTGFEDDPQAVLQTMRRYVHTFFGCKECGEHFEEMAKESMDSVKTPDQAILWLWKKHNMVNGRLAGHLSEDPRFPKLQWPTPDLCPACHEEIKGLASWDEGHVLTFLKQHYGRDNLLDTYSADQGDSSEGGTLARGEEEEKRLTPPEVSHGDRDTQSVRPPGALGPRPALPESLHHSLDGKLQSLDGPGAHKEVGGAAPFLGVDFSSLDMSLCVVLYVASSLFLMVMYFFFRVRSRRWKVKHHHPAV
UniProt Q15274: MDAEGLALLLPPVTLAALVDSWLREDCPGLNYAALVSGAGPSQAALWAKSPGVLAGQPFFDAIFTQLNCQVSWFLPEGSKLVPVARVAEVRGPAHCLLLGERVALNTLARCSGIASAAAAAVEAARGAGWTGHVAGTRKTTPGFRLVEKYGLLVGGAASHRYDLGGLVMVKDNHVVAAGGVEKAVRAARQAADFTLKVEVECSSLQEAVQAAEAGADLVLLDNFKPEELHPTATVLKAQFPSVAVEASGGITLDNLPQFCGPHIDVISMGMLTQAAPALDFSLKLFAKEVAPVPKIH
UniProt P49720: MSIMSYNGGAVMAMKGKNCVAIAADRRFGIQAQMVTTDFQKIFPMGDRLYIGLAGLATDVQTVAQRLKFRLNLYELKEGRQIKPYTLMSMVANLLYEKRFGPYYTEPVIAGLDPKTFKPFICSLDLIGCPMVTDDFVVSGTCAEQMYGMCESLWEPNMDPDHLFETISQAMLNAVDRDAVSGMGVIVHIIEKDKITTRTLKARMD
UniProt P15151: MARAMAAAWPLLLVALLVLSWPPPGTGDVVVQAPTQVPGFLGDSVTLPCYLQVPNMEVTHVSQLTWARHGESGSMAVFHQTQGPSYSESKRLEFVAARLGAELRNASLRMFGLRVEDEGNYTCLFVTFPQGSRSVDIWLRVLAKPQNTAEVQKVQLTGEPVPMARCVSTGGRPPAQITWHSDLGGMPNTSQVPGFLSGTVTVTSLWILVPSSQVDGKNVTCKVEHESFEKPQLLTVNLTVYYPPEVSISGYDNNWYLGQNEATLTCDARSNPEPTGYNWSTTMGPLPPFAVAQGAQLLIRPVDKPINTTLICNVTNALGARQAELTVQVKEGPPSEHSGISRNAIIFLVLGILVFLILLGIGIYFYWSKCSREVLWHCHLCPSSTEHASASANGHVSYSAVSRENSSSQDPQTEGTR
UniProt Q8TBF2: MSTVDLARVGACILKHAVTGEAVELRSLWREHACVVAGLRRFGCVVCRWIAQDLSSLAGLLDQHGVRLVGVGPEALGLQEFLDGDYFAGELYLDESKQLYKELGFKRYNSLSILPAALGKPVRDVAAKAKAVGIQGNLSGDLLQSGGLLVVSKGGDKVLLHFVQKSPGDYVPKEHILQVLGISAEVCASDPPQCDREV
UniProt P25789: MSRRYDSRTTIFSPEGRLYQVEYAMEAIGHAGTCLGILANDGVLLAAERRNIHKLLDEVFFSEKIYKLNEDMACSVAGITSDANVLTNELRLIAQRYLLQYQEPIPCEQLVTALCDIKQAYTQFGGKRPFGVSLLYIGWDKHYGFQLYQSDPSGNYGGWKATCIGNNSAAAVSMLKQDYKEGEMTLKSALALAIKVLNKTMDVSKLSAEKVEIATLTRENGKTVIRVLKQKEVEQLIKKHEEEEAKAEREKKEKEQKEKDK
UniProt P62191: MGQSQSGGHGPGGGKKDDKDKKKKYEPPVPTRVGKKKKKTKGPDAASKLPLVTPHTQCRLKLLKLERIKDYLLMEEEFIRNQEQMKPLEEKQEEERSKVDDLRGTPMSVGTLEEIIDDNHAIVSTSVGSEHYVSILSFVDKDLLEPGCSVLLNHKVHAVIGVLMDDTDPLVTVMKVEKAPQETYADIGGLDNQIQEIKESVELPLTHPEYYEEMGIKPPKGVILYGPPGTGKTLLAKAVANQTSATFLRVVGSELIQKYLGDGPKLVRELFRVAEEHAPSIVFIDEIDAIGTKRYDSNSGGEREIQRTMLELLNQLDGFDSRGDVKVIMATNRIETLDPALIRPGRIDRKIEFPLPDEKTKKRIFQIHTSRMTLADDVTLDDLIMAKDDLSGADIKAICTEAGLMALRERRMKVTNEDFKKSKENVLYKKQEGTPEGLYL
UniProt P78330: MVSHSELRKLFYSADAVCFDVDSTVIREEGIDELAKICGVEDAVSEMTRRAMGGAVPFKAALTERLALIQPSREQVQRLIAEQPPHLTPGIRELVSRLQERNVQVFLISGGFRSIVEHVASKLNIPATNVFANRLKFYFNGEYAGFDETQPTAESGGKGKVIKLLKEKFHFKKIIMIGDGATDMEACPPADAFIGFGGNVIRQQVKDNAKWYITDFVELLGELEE
UniProt Q9NRG1: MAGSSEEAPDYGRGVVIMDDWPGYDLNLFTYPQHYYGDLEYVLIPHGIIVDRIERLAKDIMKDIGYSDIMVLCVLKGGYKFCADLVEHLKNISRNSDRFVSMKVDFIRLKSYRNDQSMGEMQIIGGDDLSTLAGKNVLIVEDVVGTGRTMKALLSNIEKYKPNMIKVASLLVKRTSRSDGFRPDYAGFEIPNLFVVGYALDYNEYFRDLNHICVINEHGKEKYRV
UniProt Q53H96: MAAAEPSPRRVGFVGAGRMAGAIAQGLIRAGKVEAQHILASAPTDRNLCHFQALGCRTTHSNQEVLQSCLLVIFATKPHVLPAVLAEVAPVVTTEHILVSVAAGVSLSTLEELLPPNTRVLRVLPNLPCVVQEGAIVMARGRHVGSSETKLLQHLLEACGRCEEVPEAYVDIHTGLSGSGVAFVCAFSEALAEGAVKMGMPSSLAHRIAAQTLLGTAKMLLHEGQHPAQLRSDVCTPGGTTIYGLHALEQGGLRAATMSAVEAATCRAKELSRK
UniProt Q8N8N7: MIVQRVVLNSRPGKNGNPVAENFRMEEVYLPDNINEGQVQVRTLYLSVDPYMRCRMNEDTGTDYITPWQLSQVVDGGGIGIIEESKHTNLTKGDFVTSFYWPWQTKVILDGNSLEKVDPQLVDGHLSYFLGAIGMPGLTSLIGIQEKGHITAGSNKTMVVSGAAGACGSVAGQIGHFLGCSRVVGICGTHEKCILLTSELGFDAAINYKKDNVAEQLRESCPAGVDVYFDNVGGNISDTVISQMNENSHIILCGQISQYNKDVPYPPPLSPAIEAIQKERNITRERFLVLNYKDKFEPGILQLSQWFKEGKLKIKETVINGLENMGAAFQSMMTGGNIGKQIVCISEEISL

Key:
Assay in all cases: log2 fold change, soluble protein after heating vs DMSO (PISA); higher = thermal stabilisation; K562 cells, 10 uM, 30 min; active = over 0.2 and 3.5 SD of the protein, either way, in both replicates (recomputed)
[1] = compound: NC(=O)Nc1cc(-c2cccc(F)c2)sc1C(=O)N[C@H]1CCCNC1
Method in brief: (§1)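 K562 cells at 2×10^6 cells/mL were exposed to 10 μM compound for 30 min, then aliquots were heated for 3 min across 48°C-58°C, pooled, and extracted in PBS containing 0.5% NP-40 at 4°C. The supernatant after 21,000xg for 90 min was taken as soluble protein and measured by TMTpro 16plex LC-MS/MS with channel sums equalised. Thermal stability is reported relative to control samples, with values from duplicates. Fold changes are given on a log2 scale.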

[2] = compound: NC(=O)c1cnc(N[C@@H]2CCCC[C@@H]2N)nc1Nc1cccc(-n2nccn2)c1
Method in brief: as §1

[3] = compound: NC1(c2ccc(-c3nc4ccn5c(=O)[nH]nc5c4cc3-c3ccccc3)cc2)CCC1
Method in brief: as §1

[4] = compound: NCC(=O)Nc1ccc(-n2nc(C(F)(F)F)cc2-c2ccc3c(ccc4ccccc43)c2)cc1
Method in brief: as §1

entinostat = compound: Nc1ccccc1NC(=O)c1ccc(CNC(=O)OCc2cccnc2)cc1 [entinostat]
Method in brief: as §1

vorinostat = compound: O=C(CCCCCCC(=O)Nc1ccccc1)NO [vorinostat]
Method in brief: as §1

citarinostat = compound: O=C(CCCCCCNC(=O)c1cnc(N(c2ccccc2)c2ccccc2Cl)nc1)NO [citarinostat]
Method in brief: as §1

silmitasertib = compound: O=C(O)c1ccc2c(c1)nc(Nc1cccc(Cl)c1)c1ccncc12 [silmitasertib]
Method in brief: as §1

[5] = compound: O=C1NC(=O)C(c2cnc3ccccn23)=C1c1cn2c3c(cc(F)cc13)CN(C(=O)N1CCCCC1)CC2
Method in brief: as §1

[6] = compound: c1cc(OCCN2CCCCC2)cc(-c2n[nH]c3ccc(-c4nnc[nH]4)cc23)c1
Method in brief: as §1

Target	log2 fold change [1]	log2 fold change [2]	log2 fold change [3]	log2 fold change [4]	log2 fold change (entinostat)	log2 fold change (vorinostat)	log2 fold change (citarinostat)	log2 fold change (silmitasertib)	log2 fold change [5]	log2 fold change [6]
PUDP isoform 4 (UniProt Q08623)	inactive: -0.011	inactive: 0.007	inactive: -0.041	inactive: 0.094	inactive: 0.017	inactive: -0.001	inactive: 0.046	inactive: -0.038	inactive: -0.13	inactive: 0.023
PTRHD1 (UniProt Q6GMV3)	inactive: -0.02	inactive: 0.037	inactive: -0.009	inactive: 0.03	inactive: 0.095	inactive: -0.099	inactive: 0.026	inactive: -0.006	inactive: -0.065	inactive: -0.006
PZP (UniProt P20742)	inactive: -0.107	inactive: 0.087	inactive: 0.028	inactive: 0.039	inactive: -0.032	inactive: -0.061	inactive: -0.038	inactive: 0.066	inactive: 0.025	inactive: 0.399
PYM1 (UniProt Q9BRP8)	inactive: -0.008	inactive: 0.054	inactive: 0.129	inactive: 0.016	inactive: -0.042	inactive: -0.03	inactive: -0.053	inactive: 0.043	inactive: 0.063	inactive: -0.107
PTTG1 (UniProt O95997)	inactive: -0.006	inactive: -0.098	inactive: -0.015	inactive: -0.071	inactive: 0.035	inactive: -0.043	inactive: 0.027	inactive: -0.002	inactive: -0.023	inactive: -0.128
PTPN11 isoform 1 (UniProt Q06124)	inactive: -0.043	inactive: 0.016	inactive: -0.045	inactive: -0.014	inactive: 0.014	inactive: -0.032	inactive: 0.027	inactive: 0.028	inactive: -0.006	inactive: -0.013
PSME1 (UniProt Q06323)	inactive: -0.003	inactive: -0.021	inactive: -0.036	inactive: 0	inactive: 0.002	inactive: 0.031	inactive: -0.006	inactive: -0.049	inactive: 0	inactive: -0.025
PUM2 (UniProt Q8TB72)	inactive: -0.088	inactive: -0.014	inactive: -0.101	inactive: -0.057	inactive: -0.039	inactive: 0.03	inactive: -0.003	inactive: 0.034	inactive: 0.102	inactive: -0.101
PTPN12 (UniProt Q05209)	inactive: 0.037	inactive: -0.023	inactive: -0.1	inactive: -0.012	inactive: 0.038	inactive: -0.01	inactive: 0.019	inactive: 0.163	inactive: 0.014	inactive: -0.015
PSMA5 (UniProt P28066)	inactive: 0.065	inactive: 0.052	inactive: 0.038	inactive: 0.065	inactive: -0.001	inactive: -0.02	inactive: 0.021	inactive: -0.006	inactive: 0.048	inactive: -0.055
PSRC1 (UniProt Q6PGN9)	inactive: -0.033	inactive: -0.028	inactive: 0.039	inactive: -0.017	inactive: -0.006	inactive: 0.039	inactive: -0.004	inactive: -0.01	inactive: 0.052	inactive: -0.102
PSMG2 (UniProt Q969U7)	inactive: 0.011	inactive: -0.039	inactive: -0.045	inactive: 0.002	inactive: 0	inactive: -0.009	inactive: 0.027	inactive: -0.011	inactive: -0.031	inactive: -0.001
PTBP1 (UniProt P26599)	inactive: -0.036	inactive: 0.011	inactive: 0.002	inactive: -0.017	inactive: 0.021	inactive: 0.153	inactive: 0.039	inactive: 0	inactive: -0.023	inactive: -0.069
QKI (UniProt Q96PU8)	inactive: -0.057	inactive: -0.137	inactive: -0.086	inactive: -0.084	inactive: 0.006	inactive: 0.06	inactive: 0.026	inactive: -0.012	inactive: -0.071	inactive: 0.064
PSMA7 (UniProt O14818)	inactive: 0.002	inactive: 0.065	inactive: 0.009	inactive: 0.052	inactive: -0.058	inactive: -0.013	inactive: -0.009	inactive: -0.001	inactive: 0.068	inactive: -0.026
PSMF1 (UniProt Q92530)	inactive: -0.007	inactive: -0.038	inactive: -0.031	inactive: -0.042	inactive: -0.007	inactive: -0.011	inactive: 0.033	inactive: 0.052	inactive: -0.062	inactive: 0.027
PTP4A1 (UniProt Q93096)	inactive: -0.035	inactive: -0.202	inactive: -0.007	inactive: 0.016	inactive: 0.039	inactive: -0.029	inactive: 0.063	inactive: -0.001	inactive: -0.075	inactive: 0.059
PSPC1 (UniProt Q8WXF1)	inactive: -0.001	inactive: -0.039	inactive: 0.021	inactive: -0.027	inactive: -0.014	inactive: 0.14	inactive: 0.067	inactive: -0.032	inactive: -0.074	inactive: -0.057
PTK7 isoform 6 (UniProt Q13308)	inactive: -0.093	inactive: 0.057	inactive: -0.162	inactive: 0.041	inactive: 0.012	inactive: -0.07	inactive: -0.046	inactive: 0.134	inactive: -0.137	inactive: 0.018
QSOX2 (UniProt Q6ZRP7)	inactive: -0.003	inactive: -0.027	inactive: -0.049	inactive: 0	inactive: 0.023	inactive: 0	inactive: 0.024	inactive: 0.074	inactive: 0.063	inactive: -0.095

Target	log2 fold change [1]	log2 fold change [2]	log2 fold change [3]	log2 fold change [4]	log2 fold change (entinostat)	log2 fold change (vorinostat)	log2 fold change (citarinostat)	log2 fold change (silmitasertib)	log2 fold change [5]	log2 fold change [6]
PTAR1 (UniProt Q7Z6K3)	inactive: -0.041	inactive: -0.015	inactive: -0.031	inactive: 0	inactive: -0.05	inactive: -0.074	inactive: -0.049	inactive: -0.021	inactive: -0.024	inactive: 0.229
QPRT (UniProt Q15274)	inactive: 0.011	inactive: -0.029	inactive: 0.016	inactive: 0.034	inactive: -0.022	inactive: -0.013	inactive: 0.015	inactive: -0.025	inactive: -0.036	inactive: 0.051
PTGES2 (UniProt Q9H7Z7)	inactive: -0.048	inactive: -0.012	inactive: -0.066	inactive: -0.011	inactive: -0.019	inactive: 0.016	inactive: 0.045	inactive: 0.018	inactive: -0.066	inactive: -0.013
PTGFRN (UniProt Q9P2B2)	inactive: -0.115	inactive: 0.083	inactive: 0.013	inactive: 0.014	inactive: -0.071	inactive: -0.055	inactive: 0.021	inactive: -0.006	inactive: -0.007	inactive: -0.104
PWP1 (UniProt Q13610)	inactive: 0.131	inactive: 0.113	inactive: 0.367	inactive: 0.18	inactive: -0.066	inactive: -0.097	inactive: -0.186	inactive: 0.216	inactive: 0.253	inactive: -0.238
PSMD11 (UniProt O00231)	inactive: 0.048	inactive: 0.04	inactive: -0.016	inactive: 0.061	inactive: -0.012	inactive: 0.027	inactive: -0.001	inactive: -0.028	inactive: 0.071	inactive: -0.092
PSMB3 (UniProt P49720)	inactive: 0.046	inactive: 0.058	inactive: -0.014	inactive: 0.067	inactive: -0.056	inactive: -0.045	inactive: 0	inactive: 0.033	inactive: 0.055	inactive: -0.076
PVR (UniProt P15151)	inactive: -0.047	inactive: 0.116	inactive: 0.002	inactive: 0.134	inactive: -0.019	inactive: -0.001	inactive: 0.018	inactive: -0.055	inactive: -0.053	inactive: -0.073
PURB (UniProt Q96QR8)	inactive: 0.077	inactive: 0.004	inactive: 0.269	inactive: 0.414	inactive: 0.514	inactive: -0.145	inactive: -0.079	inactive: 0.09	inactive: 0.314	inactive: -0.098
PRXL2B isoform 3 (UniProt Q8TBF2)	inactive: 0.001	inactive: 0.025	inactive: 0.018	inactive: 0.027	inactive: -0.029	inactive: 0.004	inactive: 0.044	inactive: -0.057	inactive: -0.013	inactive: -0.019
PSMA4 (UniProt P25789)	inactive: 0.035	inactive: 0.051	inactive: 0.035	inactive: 0.064	inactive: -0.02	inactive: -0.025	inactive: 0.019	inactive: 0.005	inactive: 0.121	inactive: -0.033
PUS3 (UniProt Q9BZE2)	inactive: 0.032	inactive: -0.028	inactive: -0.051	inactive: -0.031	inactive: 0.046	inactive: 0.075	inactive: 0.029	inactive: -0.025	inactive: -0.033	inactive: -0.054
PSMC1 (UniProt P62191)	inactive: 0.011	inactive: 0.029	inactive: 0.014	inactive: 0.043	inactive: -0.013	inactive: -0.013	inactive: -0.032	inactive: 0.001	inactive: 0.026	inactive: -0.047
PSPH (UniProt P78330)	inactive: 0.017	inactive: -0.029	inactive: -0.008	inactive: 0.003	inactive: -0.045	inactive: -0.013	inactive: 0.019	inactive: -0.006	inactive: -0.008	inactive: -0.012
PSMA1 isoform 2 (UniProt P25786)	inactive: 0.039	inactive: 0.054	inactive: 0.044	inactive: 0.066	inactive: -0.022	inactive: -0.003	inactive: -0.034	inactive: 0.004	inactive: 0.015	inactive: -0.054
PRTFDC1 (UniProt Q9NRG1)	inactive: -0.043	inactive: 0.02	inactive: 0.04	inactive: 0.052	inactive: -0.022	inactive: -0.008	inactive: 0.046	inactive: -0.084	inactive: -0.027	inactive: 0.014
PYCR3 (UniProt Q53H96)	inactive: 0.052	inactive: -0.005	inactive: 0.015	inactive: 0.02	inactive: 0.011	inactive: 0.022	inactive: 0.026	inactive: -0.002	inactive: 0.08	inactive: 0.046
PTDSS1 (UniProt P48651)	inactive: 0.043	inactive: -0.045	inactive: 0.022	inactive: -0.007	inactive: -0.058	inactive: 0.199	inactive: -0.051	inactive: 0.091	inactive: 0.184	inactive: -0.06
PSMB1 (UniProt P20618)	inactive: 0.029	inactive: 0.055	inactive: 0.045	inactive: 0.084	inactive: -0.066	inactive: 0.035	inactive: 0	inactive: 0	inactive: 0.054	inactive: -0.027
PTGR2 (UniProt Q8N8N7)	inactive: -0.039	inactive: -0.077	inactive: 0.123	inactive: -0.164	inactive: -0.05	inactive: -0.149	inactive: 0.009	inactive: -0.011	active: 0.611	inactive: 0.231

Rewritten in markdown: part of the list above.

| Target | log2 fold change [1] | log2 fold change [2] | log2 fold change [3] | log2 fold change [4] | log2 fold change (entinostat) | log2 fold change (vorinostat) | log2 fold change (citarinostat) | log2 fold change (silmitasertib) | log2 fold change [5] | log2 fold change [6] |
| --- | --- | --- | --- | --- | --- | --- | --- | --- | --- | --- |
| PWP1 (UniProt Q13610) | inactive: 0.131 | inactive: 0.113 | inactive: 0.367 | inactive: 0.18 | inactive: -0.066 | inactive: -0.097 | inactive: -0.186 | inactive: 0.216 | inactive: 0.253 | inactive: -0.238 |
| PTGR2 (UniProt Q8N8N7) | inactive: -0.039 | inactive: -0.077 | inactive: 0.123 | inactive: -0.164 | inactive: -0.05 | inactive: -0.149 | inactive: 0.009 | inactive: -0.011 | active: 0.611 | inactive: 0.231 |
